Measurements published in US20110138496.

Chains of the proteins cited; added tags and fusions are not shown. A line that says so, or that is headed by a name, gives the form on record, which may keep a tag or linker.
HvIDEF2 (barley library one-hybrid clone) (Hordeum vulgare), one chain, as listed by the source: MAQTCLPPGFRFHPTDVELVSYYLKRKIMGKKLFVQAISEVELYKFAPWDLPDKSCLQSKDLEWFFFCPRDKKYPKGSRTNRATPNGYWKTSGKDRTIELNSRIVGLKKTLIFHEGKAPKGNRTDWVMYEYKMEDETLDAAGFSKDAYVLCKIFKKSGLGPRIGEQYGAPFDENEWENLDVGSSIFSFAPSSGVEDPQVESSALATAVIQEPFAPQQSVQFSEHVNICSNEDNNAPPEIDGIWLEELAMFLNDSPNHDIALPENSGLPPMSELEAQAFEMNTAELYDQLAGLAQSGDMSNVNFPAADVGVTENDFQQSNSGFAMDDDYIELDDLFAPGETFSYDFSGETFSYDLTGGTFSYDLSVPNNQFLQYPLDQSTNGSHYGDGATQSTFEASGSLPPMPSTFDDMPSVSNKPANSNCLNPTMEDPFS
AK101356 GAL4 AD fusion (Oryza sativa), one chain, as listed by the source: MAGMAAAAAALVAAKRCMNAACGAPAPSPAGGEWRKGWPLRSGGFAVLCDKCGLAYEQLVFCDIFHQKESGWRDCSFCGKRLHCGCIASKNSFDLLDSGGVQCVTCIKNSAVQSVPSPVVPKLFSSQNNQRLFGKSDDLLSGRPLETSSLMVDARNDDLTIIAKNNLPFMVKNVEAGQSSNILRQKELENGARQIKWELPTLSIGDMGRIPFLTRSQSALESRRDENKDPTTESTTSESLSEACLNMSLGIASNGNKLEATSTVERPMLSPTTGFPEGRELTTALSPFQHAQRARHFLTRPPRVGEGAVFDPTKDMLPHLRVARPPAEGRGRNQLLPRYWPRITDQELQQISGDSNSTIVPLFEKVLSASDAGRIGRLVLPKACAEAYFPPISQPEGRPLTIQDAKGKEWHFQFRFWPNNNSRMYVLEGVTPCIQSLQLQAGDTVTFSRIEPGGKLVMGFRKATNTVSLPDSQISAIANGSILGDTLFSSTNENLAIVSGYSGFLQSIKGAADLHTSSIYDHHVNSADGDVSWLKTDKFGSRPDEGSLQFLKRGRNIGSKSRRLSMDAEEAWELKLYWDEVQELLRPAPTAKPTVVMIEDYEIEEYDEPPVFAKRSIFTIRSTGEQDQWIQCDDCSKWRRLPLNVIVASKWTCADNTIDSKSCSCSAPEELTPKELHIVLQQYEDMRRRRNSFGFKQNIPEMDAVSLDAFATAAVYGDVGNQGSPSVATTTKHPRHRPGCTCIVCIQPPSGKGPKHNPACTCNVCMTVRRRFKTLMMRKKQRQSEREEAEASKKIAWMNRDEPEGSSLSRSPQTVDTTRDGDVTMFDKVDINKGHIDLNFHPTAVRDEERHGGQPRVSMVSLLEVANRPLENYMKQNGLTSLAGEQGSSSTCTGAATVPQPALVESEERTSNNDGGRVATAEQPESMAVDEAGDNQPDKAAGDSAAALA
AK101356 B3-domain fragment, MBP fusion (Oryza sativa), one chain, as listed by the source: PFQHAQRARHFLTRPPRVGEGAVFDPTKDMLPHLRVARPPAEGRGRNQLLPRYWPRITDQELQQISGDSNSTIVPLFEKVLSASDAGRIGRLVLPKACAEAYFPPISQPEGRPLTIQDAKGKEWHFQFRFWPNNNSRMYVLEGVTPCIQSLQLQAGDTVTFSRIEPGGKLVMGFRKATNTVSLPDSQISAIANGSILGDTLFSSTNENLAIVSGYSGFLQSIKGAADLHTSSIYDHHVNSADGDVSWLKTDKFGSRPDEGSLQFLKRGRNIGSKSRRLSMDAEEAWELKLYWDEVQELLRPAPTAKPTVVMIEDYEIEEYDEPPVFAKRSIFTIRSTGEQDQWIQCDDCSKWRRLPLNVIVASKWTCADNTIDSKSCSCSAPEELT

Experiments:
[1] = test system: AK101356 B3-domain fragment, MBP fusion (Oryza sativa); assay: EMSA; details: no specific binding; purified recombinant protein; protein details: MBP (pMAL-c2); label: labeled (EMSA probe)
[2] = test system: AK101356 GAL4 AD fusion (Oryza sativa); assay: one hybrid; details: protein in cells, protein details: GAL4 AD (pGAD424)
[3] = biological target: T1, IDEF1 (AK107456) full length, GAL4 AD fusion (Oryza sativa) (UniProt Q6Z1Z3); assay: one hybrid; details: protein in cells, protein details: GAL4 AD (pGAD424)
T1 sequence: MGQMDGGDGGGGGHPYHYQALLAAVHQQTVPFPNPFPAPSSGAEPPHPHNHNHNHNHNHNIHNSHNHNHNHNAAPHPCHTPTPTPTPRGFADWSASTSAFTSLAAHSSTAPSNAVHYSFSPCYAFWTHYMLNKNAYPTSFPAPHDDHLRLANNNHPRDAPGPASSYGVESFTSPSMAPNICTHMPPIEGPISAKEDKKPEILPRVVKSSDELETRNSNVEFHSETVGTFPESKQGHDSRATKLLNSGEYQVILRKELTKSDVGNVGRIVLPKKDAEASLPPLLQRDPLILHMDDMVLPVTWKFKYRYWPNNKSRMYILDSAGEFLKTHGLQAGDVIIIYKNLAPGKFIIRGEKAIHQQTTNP

[4] = biological target: T2, OsVP1 GAL4 AD fusion (Oryza sativa) (UniProt P37398); assay: one hybrid; details: protein in cells, protein details: GAL4 AD (pGAD424)
T2 sequence (looked up, limits assumed): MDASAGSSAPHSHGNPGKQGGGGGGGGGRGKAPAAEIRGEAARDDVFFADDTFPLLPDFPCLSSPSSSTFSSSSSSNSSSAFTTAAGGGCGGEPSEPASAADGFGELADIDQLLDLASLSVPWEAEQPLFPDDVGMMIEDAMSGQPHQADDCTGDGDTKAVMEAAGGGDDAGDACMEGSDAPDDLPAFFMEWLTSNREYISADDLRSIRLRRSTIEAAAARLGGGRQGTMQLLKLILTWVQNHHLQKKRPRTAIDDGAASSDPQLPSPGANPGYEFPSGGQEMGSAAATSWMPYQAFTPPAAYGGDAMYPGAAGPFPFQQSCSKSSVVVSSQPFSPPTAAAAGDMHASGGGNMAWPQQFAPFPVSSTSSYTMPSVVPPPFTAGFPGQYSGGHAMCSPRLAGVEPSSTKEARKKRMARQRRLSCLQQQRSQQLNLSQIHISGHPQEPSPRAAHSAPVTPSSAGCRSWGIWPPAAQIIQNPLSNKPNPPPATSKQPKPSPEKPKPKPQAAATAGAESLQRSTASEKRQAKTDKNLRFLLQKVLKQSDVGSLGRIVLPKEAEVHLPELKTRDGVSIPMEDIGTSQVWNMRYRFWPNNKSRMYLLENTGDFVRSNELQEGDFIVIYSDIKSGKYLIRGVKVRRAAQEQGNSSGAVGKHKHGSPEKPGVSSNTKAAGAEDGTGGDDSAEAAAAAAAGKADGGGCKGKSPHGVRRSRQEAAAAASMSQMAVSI

[5] = test system: HvIDEF2 (barley library one-hybrid clone) (Hordeum vulgare); assay: one hybrid; details: positive clone from iron-deficient barley root cDNA library screen; protein in cells
[6] = similar results with IDE2-IDE1x2 reporter, label: labeled (EMSA probe)

**Q.** Does “AAGCTTGAATTCGATATCTTGAACGGCAAGTTTCACGCTGTCACTATCAAGCATGCTTCTTGCTTGAACGGCAAGTTTCACGCTGTCACTATCAAGCATGCTTCTTGCACGCGTCTCGAGTCGCGAATCG (double strand) [IDE2-IDE1x2 (tandemly duplicated IDE1 probe)]” bind [1]?
**A.** Result: no binding

**Q.** And the “activity on this sequence” value [2, 6]?
**A.** Its value is “not active”.

**Q.** What about the “activity on this sequence” value [3, 6] of the same sequence?
**A.** The value was “active”.

**Q.** What about the “activity on this sequence” value [4, 6] of the same sequence?
**A.** The value was “not active”.

**Q.** Does “AGCTTGAATTCTTGAACGGCAAGTTTCACGCTGTCACTTTGAACGGCAAGTTTCACGCTGTCACTTTGAACGGCAAGTTTCACGCTGTCACTCTAGAGTCGACCTCGAGGCAT (double strand) [IDE2x3 bait]” bind [5]?
**A.** Result: binds

**Q.** What does the source list for “GCAGTCGAATTCGATATCAAGCATGCTTCTTGCTGCCCATCAAGCATGCTTCTTGCTGCCCATCAAGCATGCTTCTTGCTGCCCGTCGACTCTAGAGCAGTC (double strand) [IDE1x3 bait]”?
**A.** activity on this sequence ([2]; no LacZ induction): not active; activity on this sequence ([3]; LacZ reporter in yeast YM4271): active; activity on this sequence ([4]; no LacZ induction): not active

For some assays here: No signal at the amounts used counts as a negative. For some assays here: Tags and fusion partners may be left off the protein sequences shown. For some assays here: At least one result comes from cells or an extract, where the contact may be indirect. For some assays here: For at least one entry, the source does not settle the construct or the ends of the probe.
